From US20240238263A1, “USE OF PYRIDONE DERIVATIVE CONTAINING HETEROATOM CYCLOBUTANE SUBSTITUENT” (GUANGZHOU JOYO PHARMATECH CO., LTD, priority 2021, published 2024)

Tested on: diabetic rats
Test: Fasting blood glucose monitoring in STZ-diabetic rats with dorsal skin wound, topical administration
Type: in vivo, Wistar rats
Details: mean±S.E.M.
Experimental: In this study, 50 STZ-diabetic rats were used to simulate Type 1 diabetes, with an additional 8 normal rats serving as the control group (normal blank gel control group (without STZ)). The method for modeling the STZ-diabetic rat is as follows: Male Wistar rats were weighed and then intraperitoneally injected with Streptozotocin (STZ, freshly prepared, dissolved in 0.1 M citrate buffer (pH 4.5)) at a dosage of 80 mg/kg. STZ was intraperitoneally injected twice in total, with a 5-day interval between injections. Three days after the second STZ injection, rats with fasting blood glucose levels greater than 250 mg/dl were defined as diabetic model rats. Studies on skin wound healing could be conducted from 1 to 8 weeks after the successful establishment of the diabetic rat model. • 2.
All experimental groups were topically administered. Before administering the medication, wounds were rinsed with physiological saline and any residual moisture was absorbed with a sterile cotton swab. Then, the medication was applied. For the GeneTime group, the solution was evenly applied to the wound and surrounding skin, with the dressing changed twice a day. For the other groups, the gel samples were applied from the periphery toward the center, focusing first on the edges of the lesion before covering inward, with the dressing changed twice a day. Medication was applied immediately after the wound model was created, and each group was continuously administered for 18 days. For specific administration information, see Table 2. • 5. Efficacy assessment • 1) Blood glucose monitoring: Blood samples were obtained from all animals via tail vein sampling, and fasting blood glucose levels were measured on days 0/9/18 using a glucometer. • 2) Evaluation of wound closure:
Experimental data were expressed as the mean±standard error of the mean (mean±S.E.M.). Statistical analyses were conducted using appropriate methods in software such as Graphpad Prism or SPSS. A p-value of less than 0.05 is considered to indicate a significant difference. • 7. Results • 1) Fasting blood glucose

CC1(c2ccc(=O)n(-c3ccsc3)c2)COC1 [compound I]
Fasting blood glucose (0.3% compound I gel, 50 mg topical twice daily, Day 0 (baseline)): 431.64 ± 20.81 mg/dL | Fasting blood glucose (0.3% compound I gel, 50 mg topical twice daily, Day 9): 449.64 ± 7.22 mg/dL | Fasting blood glucose (0.3% compound I gel, 50 mg topical twice daily, Day 18): 433.62 ± 5.81 mg/dL | Fasting blood glucose (1% compound I gel, topical twice daily, Day 0 (baseline)): 432.9 ± 9.21 mg/dL | Fasting blood glucose (1% compound I gel, topical twice daily, Day 9): 447.3 ± 10.77 mg/dL | Fasting blood glucose (1% compound I gel, topical twice daily, Day 18): 474.3 ± 7.32 mg/dL | Fasting blood glucose (3% compound I gel, topical twice daily, Day 0 (baseline)): 418.86 ± 12.33 mg/dL | Fasting blood glucose (3% compound I gel, topical twice daily, Day 9): 428.22 ± 13.68 mg/dL | Fasting blood glucose (3% compound I gel, topical twice daily, Day 18): 465.66 ± 12.26 mg/dL
